The values below come from the supplement of paper PMC8256030.

Where “and” joins values, the source holds several entries; their conditions need not be identical. Equal values may be shown once. Where a name gives a salt, the structure may show the parent alone. The list shows a part of the results. Repeats in this data set agree poorly, so a single value says little.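 HEK293T cells were given each compound shortly before transfection with a reporter in which red mCherry is followed by the SARS-CoV-2 frameshift element and then GFP in the −1 frame, so GFP appears only after frameshifting.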

For this assay, the system named is HEK293T. Kind of assay: percent viability (nuclei count) relative to control; higher = more viable cells. The settings on record: 10 µM; 24 h.
Take `CCOC(=O)COc1ccc2c(=O)cc(-c3ccccc3)oc2c1` [efloxate]: the percent viability turned out to be 229%. Consider `CO[C@@]1(NC(=O)Cc2cccs2)C(=O)N2C(C(=O)O)=C(COC(N)=O)CS[C@@H]21` [cefoxitin], for which the percent viability stood at 194%.

On to `C[C@H](Cc1cc2c(c(C(N)=O)c1)N(CCCO)CC2)NCCOc1ccccc1OCC(F)(F)F` [silodosin], for which the percent viability stood at 143%. As for `CC1CCCCN1CCCOC(=O)c1ccccc1` (stereo not given) [piperocaine], the percent viability came out at 140%.

As for `C=C1c2cccc(O)c2C(O)=C2C(=O)[C@]3(O)C(O)=C(C(N)=O)C(=O)[C@@H](N(C)C)[C@@H]3[C@@H](O)[C@H]12` [Methacycline], the percent viability is 24.9%.

Consider `CC[C@]1(O)C[C@@H]2CN(CCc3c([nH]c4ccccc34)[C@@](C(=O)OC)(c3cc4c(cc3OC)N(C)[C@H]3[C@@](O)(C(=O)OC)[C@H](OC(C)=O)[C@]5(CC)C=CCN6CC[C@]43[C@@H]65)C2)C1` [Vinblastine], for which the percent viability is 28.2% and 12.3%. The value for `Nc1cc(-c2ccncc2)c[nH]c1=O` [amrinone] was 129% and 243%; that for `CC(=O)O[C@H](CC(=O)[O-])C[N+](C)(C)C` [Acetylcarnitine] was 232%; that for `COc1cc2c(cc1OC)C(=O)C(CC1CCN(Cc3ccccc3)CC1)C2` (stereo not given) [Donepezil·HCl] was 239%. For `CC(C)(C)NC[C@H](O)COc1ccccc1C1CCCC1` [penbutolol] the value was 368%.
